From paper PMC11449332
Residue numbers refer to the chain shown, from its start. Results are given in words; binding and its absence hold for the method and conditions named. In cells and extracts the contact can be indirect. Some entries that bind do so weakly or less than the wild type. Where a sequence is shown, tags or fusion partners need not be part of it.

Legend:
[1] = target: T1, Flag-tagged PNLDC1 (mouse, wild type) (mouse) (UniProt B2RXZ1); experiment: co-IP; Flag-PNLDC1 (wild type or E30A) and TDRKH-GFP co-expressed in HEK293T; lysed in trimming buffer (20 mM HEPES-KOH pH 7.0, 100 mM NaCl, 1.5 mM MgCl2, 0.1 mM EDTA, 0.1 mM DTT) with 1% Triton X-100; anti-FLAG M2 agarose beads; Western blot with anti-FLAG and anti-GFP
T1 sequence: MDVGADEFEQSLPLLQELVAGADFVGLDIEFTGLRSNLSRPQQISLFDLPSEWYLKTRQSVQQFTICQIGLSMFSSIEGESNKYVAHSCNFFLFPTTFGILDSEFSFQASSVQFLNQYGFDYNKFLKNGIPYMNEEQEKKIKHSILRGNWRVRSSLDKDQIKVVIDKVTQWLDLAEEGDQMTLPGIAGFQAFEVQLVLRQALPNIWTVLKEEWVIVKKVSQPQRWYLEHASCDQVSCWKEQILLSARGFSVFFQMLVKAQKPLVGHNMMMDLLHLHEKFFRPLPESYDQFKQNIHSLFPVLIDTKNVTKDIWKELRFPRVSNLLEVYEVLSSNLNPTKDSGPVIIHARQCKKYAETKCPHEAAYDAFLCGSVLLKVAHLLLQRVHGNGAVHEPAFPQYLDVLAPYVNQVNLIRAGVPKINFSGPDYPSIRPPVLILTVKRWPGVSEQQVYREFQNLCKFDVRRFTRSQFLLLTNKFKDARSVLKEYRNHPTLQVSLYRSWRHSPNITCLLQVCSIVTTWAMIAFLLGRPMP

[2] = target: T2, Flag-tagged PNLDC1 E30A (mouse, catalytically inactive) (mouse) (UniProt B2RXZ1); experiment: as above
T2 sequence: T1 sequence with E30A

B1: GFP-tagged TDRKH (mouse) (protein, UniProt Q80VL1 1-560)
chain: MSTERTSWTNLSTIQKIALGLGIPASATVAYILYRRYRESREERLTFVGEDDIEIEMRVPQEAVKLIIGRQGANIKQLRKQTGARIDVDTEDVGDERVLLISGFPVQVCKAKAAIHQILTENTPVFEQLSVPQRSVGRIIGRGGETIRSICKASGAKITCDKESEGTLLLSRLIKISGTQKEVAAAKHLILEKVSEDEELRKRIAHSAETRVPRKQPISVRREEVTEPGGAGEAALWKNTNSSMGPATPLEVPLRKGGGDMVVVGPKEGSWEKPNDDSFQNSGAQSSPETSMFEIPSPDFSFHADEYLEVYVSASEHPNHFWIQIIGSRSLQLDKLVSEMTQHYENSLPEDLTVHVGDIVAAPLSTNGSWYRARVLGTLENGNLDLYFVDFGDNGDCALKDLRALRSDFLSLPFQAIECSLARIAPTGEEWEEEALDEFDRLTHCADWKPLVAKISSYVQTGISTWPKIYLYDTSDEKKLDIGLELVRKGYAVELPEDMEENRTVPNMLKDMATETDDSLASILTETKKSPEEMPHTLSCLSLSEAASMSGDDNLEDDLF
binding [1]: binds
binding [2]: binds
